Laboratory results from PMC7862700.
The list shows a part of the results, in another mix than the full data. At the low end of the ranking the order means little.

Molecular target: T1, ELK3 (UniProt P41970)
T1 sequence: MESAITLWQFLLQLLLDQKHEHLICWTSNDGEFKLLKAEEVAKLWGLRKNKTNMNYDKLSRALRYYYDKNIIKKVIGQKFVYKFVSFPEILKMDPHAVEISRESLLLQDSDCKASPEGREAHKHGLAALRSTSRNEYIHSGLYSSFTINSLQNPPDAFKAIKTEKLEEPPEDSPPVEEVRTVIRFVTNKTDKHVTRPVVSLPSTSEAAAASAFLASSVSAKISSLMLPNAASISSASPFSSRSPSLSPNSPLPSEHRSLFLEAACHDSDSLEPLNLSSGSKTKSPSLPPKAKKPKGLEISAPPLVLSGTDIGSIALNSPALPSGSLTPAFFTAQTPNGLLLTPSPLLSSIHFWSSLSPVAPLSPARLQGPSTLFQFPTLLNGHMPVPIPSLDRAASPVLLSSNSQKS
Experiment: DAPPL (digital affinity profiling via proximity ligation, sequencing)
Settings: 10 mM Tris-HCl pH 7.5, 50 mM NaCl, 1 mM DTT, 4% glycerol, room temperature, 30 min; GST-TFs on glutathione beads, 16-mer random dsDNA library, 0.1% …; high values mean tight binding; double strand, one strand shown; scale: fold enrichment (6-mer frequency, TF over GST control)

**Q.** Which binding signal does the source give for AGTACA here?
**A.** Its binding signal is 1.31.

**Q.** Which binding signal does the source give for CACGTT here?
**A.** Its binding signal is 1.25.

**Q.** For CTTGCT, which binding signal is on record?
**A.** Its binding signal is 1.25.

**Q.** CGCTGC was tested. Which binding signal did it give?
**A.** The binding signal was 1.16.

**Q.** How did the binding signal turn out when GCAGCC was run?
**A.** The binding signal was 0.956.

**Q.** Which binding signal does the source give for TGGGAT here?
**A.** Its binding signal is 1.17.

**Q.** How did the binding signal turn out when TGTTTC was run?
**A.** The binding signal was 1.61.

**Q.** How did the binding signal turn out when CGCCAT was run?
**A.** Its binding signal is 0.952.

**Q.** Which binding signal does the source give for AAGTAG here?
**A.** The binding signal was 1.26.

**Q.** With GGTTAC as the sequence, how does the binding signal read?
**A.** The binding signal was 1.04.

Molecular target: T2, ETS2 (UniProt P15036)
T2 sequence: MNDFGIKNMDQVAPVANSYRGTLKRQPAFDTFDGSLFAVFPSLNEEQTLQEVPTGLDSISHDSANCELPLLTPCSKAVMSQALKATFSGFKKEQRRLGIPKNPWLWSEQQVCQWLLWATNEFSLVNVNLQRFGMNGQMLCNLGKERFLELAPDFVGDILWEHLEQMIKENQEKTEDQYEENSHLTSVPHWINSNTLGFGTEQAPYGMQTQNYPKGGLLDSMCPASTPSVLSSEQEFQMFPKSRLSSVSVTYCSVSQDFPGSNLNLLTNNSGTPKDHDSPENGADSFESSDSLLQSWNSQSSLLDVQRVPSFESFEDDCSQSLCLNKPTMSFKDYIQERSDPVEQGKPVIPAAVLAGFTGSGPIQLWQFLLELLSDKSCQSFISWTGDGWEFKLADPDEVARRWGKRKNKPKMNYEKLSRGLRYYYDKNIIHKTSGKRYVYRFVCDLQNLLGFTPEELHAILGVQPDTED
Experiment: as above
Settings: 10 mM Tris-HCl pH 7.5, 50 mM NaCl, 1 mM DTT, 4% glycerol, room temperature, 30 min; GST-TFs on glutathione beads, 16-mer random dsDNA library, 0.1% …; high values mean tight binding; double strand, one strand shown; scale: fold enrichment (6-mer frequency, TF over GST control)

**Q.** AGTACA was tested. Which binding signal did it give?
**A.** The binding signal was 1.16.

**Q.** Which binding signal does the source give for CACGTT here?
**A.** Its binding signal is 1.3.

**Q.** For CTTGCT, which binding signal is on record?
**A.** The binding signal was 1.21.

**Q.** CGCTGC was tested. Which binding signal did it give?
**A.** The binding signal was 1.28.

**Q.** How did the binding signal turn out when GCAGCC was run?
**A.** The binding signal was 0.964.

**Q.** TGGGAT was tested. Which binding signal did it give?
**A.** Its binding signal is 1.17.

**Q.** With TGTTTC as the sequence, how does the binding signal read?
**A.** Its binding signal is 1.79.

**Q.** For CGCCAT, which binding signal is on record?
**A.** The binding signal was 0.98.

**Q.** How did the binding signal turn out when AAGTAG was run?
**A.** Its binding signal is 1.31.

**Q.** For GGTTAC, which binding signal is on record?
**A.** Its binding signal is 0.978.

Molecular target: T3, ETV3 (UniProt P41162-2)
T3 sequence: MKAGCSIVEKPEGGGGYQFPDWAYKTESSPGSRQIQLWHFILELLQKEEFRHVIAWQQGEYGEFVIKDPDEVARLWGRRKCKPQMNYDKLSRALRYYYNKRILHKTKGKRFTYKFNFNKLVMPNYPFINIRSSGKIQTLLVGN
Experiment: as above
Settings: 10 mM Tris-HCl pH 7.5, 50 mM NaCl, 1 mM DTT, 4% glycerol, room temperature, 30 min; GST-TFs on glutathione beads, 16-mer random dsDNA library, 0.1% …; high values mean tight binding; double strand, one strand shown; scale: fold enrichment (6-mer frequency, TF over GST control)

**Q.** GTGTTT was tested. Which binding signal did it give?
**A.** The binding signal was 1.15.

**Q.** Which binding signal does the source give for CGTATA here?
**A.** The binding signal was 1.18.

**Q.** TGCAGC was tested. Which binding signal did it give?
**A.** The binding signal was 1.05.

**Q.** ATTCGC was tested. Which binding signal did it give?
**A.** The binding signal was 1.23.

**Q.** TGCGGA was tested. Which binding signal did it give?
**A.** The binding signal was 1.54.

**Q.** Which binding signal does the source give for ATTTTG here?
**A.** The binding signal was 1.1.

**Q.** Which binding signal does the source give for CTATTG here?
**A.** Its binding signal is 1.42.

**Q.** Which binding signal does the source give for AACTCT here?
**A.** Its binding signal is 1.34.

**Q.** For TCCTGC, which binding signal is on record?
**A.** Its binding signal is 1.73.

**Q.** With AATCCT as the sequence, how does the binding signal read?
**A.** The binding signal was 1.37.

**Q.** For CACTGC, which binding signal is on record?
**A.** The binding signal was 1.26.

**Q.** CATGCC was tested. Which binding signal did it give?
**A.** Its binding signal is 1.22.

**Q.** How did the binding signal turn out when TGATCC was run?
**A.** Its binding signal is 1.24.

**Q.** For CATCCT, which binding signal is on record?
**A.** The binding signal was 1.86.

**Q.** How did the binding signal turn out when CCGGAC was run?
**A.** The binding signal was 1.6.

**Q.** Which binding signal does the source give for TCATGG here?
**A.** Its binding signal is 1.11.

**Q.** With CAAGAA as the sequence, how does the binding signal read?
**A.** Its binding signal is 0.99.

**Q.** Which binding signal does the source give for CTGCAT here?
**A.** Its binding signal is 1.24.

**Q.** For CTGCAG, which binding signal is on record?
**A.** The binding signal was 1.07.

**Q.** How did the binding signal turn out when CTTAGT was run?
**A.** Its binding signal is 1.31.

**Q.** AGCGTC was tested. Which binding signal did it give?
**A.** Its binding signal is 1.01.

**Q.** CACACG was tested. Which binding signal did it give?
**A.** The binding signal was 1.1.

**Q.** ACACAT was tested. Which binding signal did it give?
**A.** The binding signal was 1.2.

**Q.** For CCACAA, which binding signal is on record?
**A.** Its binding signal is 1.12.

**Q.** TGTAAG was tested. Which binding signal did it give?
**A.** Its binding signal is 1.17.

**Q.** Which binding signal does the source give for CAATAC here?
**A.** The binding signal was 1.29.

**Q.** How did the binding signal turn out when GGAAGA was run?
**A.** The binding signal was 1.24.

**Q.** For TAGCAG, which binding signal is on record?
**A.** Its binding signal is 0.992.

**Q.** How did the binding signal turn out when ACTAAT was run?
**A.** The binding signal was 1.12.
